From the supplement of paper PMC3334620
Whole data set: some 33,000 sequences, median “E-score (-0.5 to 0.5)” near -0.016, cut for the highest 2% near 0.3. Some of the results follow.

Molecular target: T1, Yer184c (UniProt P39961)
T1 sequence: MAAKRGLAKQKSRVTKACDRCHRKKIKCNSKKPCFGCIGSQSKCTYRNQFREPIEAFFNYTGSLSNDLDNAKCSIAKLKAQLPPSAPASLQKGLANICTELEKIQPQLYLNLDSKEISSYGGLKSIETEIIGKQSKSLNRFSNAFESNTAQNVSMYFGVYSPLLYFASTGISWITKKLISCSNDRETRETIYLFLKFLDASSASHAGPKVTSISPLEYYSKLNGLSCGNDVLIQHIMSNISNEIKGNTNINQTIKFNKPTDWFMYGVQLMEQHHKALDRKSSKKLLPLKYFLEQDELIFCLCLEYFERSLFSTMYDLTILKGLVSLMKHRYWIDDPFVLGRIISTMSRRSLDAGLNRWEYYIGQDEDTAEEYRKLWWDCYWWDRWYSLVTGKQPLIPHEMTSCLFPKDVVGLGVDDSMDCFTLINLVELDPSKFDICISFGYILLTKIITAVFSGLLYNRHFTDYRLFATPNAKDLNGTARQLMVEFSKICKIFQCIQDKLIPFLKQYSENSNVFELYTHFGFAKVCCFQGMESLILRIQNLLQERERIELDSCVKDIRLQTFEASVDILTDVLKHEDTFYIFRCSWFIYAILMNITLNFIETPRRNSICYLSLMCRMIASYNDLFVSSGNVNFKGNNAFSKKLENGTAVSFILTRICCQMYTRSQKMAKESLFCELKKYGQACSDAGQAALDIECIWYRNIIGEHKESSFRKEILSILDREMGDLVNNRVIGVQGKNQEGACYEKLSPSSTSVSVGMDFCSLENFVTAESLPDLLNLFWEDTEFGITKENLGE
Experiment: PBM E-score (8-mer binding enrichment) (E-score (-0.5 to 0.5)); higher = stronger / more preferred TF binding
Conditions: protein concentration: 100 nM; construct: GST-full length
Procedure, shortened: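 Using PURExpress in vitro transcription/translation, GST-tagged yeast transcription factors were made in full-length or DNA-binding-domain form. These were applied at about 100-200 nM to double-stranded universal all-10-mer Agilent arrays, and bound protein was detected with fluorescent anti-GST. Scans were normalised with masliner before the Universal PBM Analysis Suite assigned E-scores to ungapped eight-base words pooled with their reverse complements.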

Sequence | PBM E-score
AACGCGGA | 0.178
ATTAGGGG | -0.159
AGGGGTTG | -0.26
ATGGTACA | -0.114
GAAGAAGC | 0.0592
TGCGACAA | 0.00257
ACCCGAAC | 0.243
GGAACCGA | 0.248
CATTGACA | -0.124
AGTATATG | 0.0296
CCCTCGTA | -0.117
CGCCCGGC | 0.213
AGGGCGTG | -0.232
ACACCCGA | 0.109
GGAGTACC | -0.219
ATGAAATC | 0.16
AAGATTCC | 0.194
GCTGAACC | 0.0738
CCCCCTAC | -0.346
CCAATGAA | -0.0742
CGTGTATC | 0.0553
ACCACTGA | -0.0552
ATATAGTC | 0.113
CCCGGCGA | 0.236
CCCCTAAC | -0.157

Sequence | PBM E-score
CATCACAG | -0.209
GCAAACGA | 0.203
ACGCGAGA | -0.00904
CTATCTTC | -0.0511
GAGCAAAC | -0.0268
GAAGCGGA | 0.0741
AGGACTAT | -0.238
CCAACGCG | 0.026
AACGCCAT | -0.134
ATGACCAT | -0.0315
CACGAAGG | 0.0461
CTGCATGA | -0.301
AACGACGT | -0.0552
ATGACGGG | 0.0808
ATTACATG | 0.113
CATGGAAG | 0.0843
AAGCAATC | -0.0597
AAAGTAGC | 0.108
ACTCTGTA | -0.0169
GTTCGAAA | 0.207
AAGTTTTA | 0.175
ATAGGTTC | -0.0318
AACCCCCT | -0.381
CGTTATCA | 0.0634
TACAGTAA | -0.0442

Sequence | PBM E-score
CTTATGAA | 0.00995
TAGTGTCA | 0.105
AGAATCCT | -0.138
AGCTTCAA | 0.0442
TCCCGGAA | 0.391
AAGACAGC | -0.0302
ATTCACCC | -0.155
ATTTTAAC | 0.028
CGAGGCAC | -0.0493
CCGTAATA | 0.155
CTCGTTTC | -0.00256
CGAGAGAA | 0.0551
GGAATTAC | 0.19
CGCTCTCA | -0.171
AATAGGAT | 0.264
TACGTTGA | -0.117
GAGGTTGC | -0.145
AGAACTCC | -0.138
GTGGGGTA | -0.0198
ACTCGTTG | -0.134
TGTTCGAA | 0.16
AACATGAA | -0.00023
GAAATCGA | 0.0893
CCCTTCGA | -0.2
CACAGACA | 0.163

Shown tab-delimited: part of the list above.
Sequence	PBM E-score
CTCGTTTC	-0.00256
GGAATTAC	0.19
GAGGTTGC	-0.145
GTGGGGTA	-0.0198
TGTTCGAA	0.16

Next part

Sequence | PBM E-score
CCGATAAA | 0.239
CTCCTAAG | -0.104
GGGTGATA | -0.22
AGGGGCCG | -0.268
ATGCATTG | -0.0672
CGCGATAA | 0.0428
CAGATGGA | 0.025
ACTACACA | 0.0341
AACAGGTC | -0.138
TGACAGAA | 0.0155
ATGAAAAC | 0.231
GATATACA | 0.128
ACCTTGTC | -0.162
AGAGTTCC | -0.059
AGAGTCCG | 0.107
ACTCCGTG | 0.1
AAACTGGG | -0.182
ATTACGCA | 0.00982
CTATGCCC | -0.16
AAACCTCT | -0.00834
CGAGGTCC | 0.123
ATTCCATG | 0.035
GACCATCC | -0.237
CATCTCCG | 0.37
CCCACTCC | -0.218

Random excerpt: 5 entries already listed
Sequence | PBM E-score
ACTCCGTG | 0.1
CCCACTCC | -0.218
AGAGTCCG | 0.107
AGGGGCCG | -0.268
CAGATGGA | 0.025

The list goes on.

Sequence | PBM E-score
AAGCCACA | -0.0901
ATTCTTCC | 0.083
GCACACCA | -0.0483
CCGCCATA | 0.191
ATGTCTGC | -0.0345
AACGACCC | 0.0359
GCACTATA | -0.0644
TCGCGTCA | -0.0846
CCCGGAGC | 0.232
GTCCATTA | 0.0785
ATGTTTCA | 0.0651
GAAGGGAC | -0.0856
AAGACCAT | -0.0743
CCGGGACC | 0.342
CTCACAAG | -0.177
CGTATATA | 0.03
GAGATCAA | 0.116
AAGCTGAT | 0.0938
CCTATAGA | -0.0673
CCCCGAAG | 0.0368
CACAGCAC | -0.192
ACAAGTAC | 0.00537
GGCTACAC | 0.00875
AATTTTCG | 0.092
AGGACAAG | -0.102

Sequence | PBM E-score
GGATCAAA | 0.135
GGATCGCC | 0.0301
AAAGACGA | -0.03
GACAGGTA | -0.0915
AGGGAGAG | -0.176
CACGTCGA | -0.301
AGCACTAA | 0.0623
AGGTAGGC | -0.282
CATTGAGG | -0.17
CCTTGGTA | 0.0994
AGTTCTCC | -0.00082
CTAAATCC | 0.157
GCTTGTAA | 0.0592
ATCCATGG | -0.161
CGGGATTC | 0.272
CTTTGGTC | 0.121
AACGCTAA | -0.162
AAATTCGA | 0.00404
GGCATTGA | 0.0573
TCCACACA | -0.00582
AGATCGAC | -0.04
CAGTGTCG | -0.178
CTAAAAAG | 0.109
GCCAAGGC | -0.337
AATATTTA | 0.216

Sequence | PBM E-score
ATGCACTG | -0.0313
ACACGGTC | 0.00162
AGTTACAG | -0.0219
CACGATAG | 0.0147
CCAAATGA | 0.0957
GCAGTCAA | -0.202
AGCTGGGC | -0.0964
AGCGGAAT | 0.0752
CGAACGCC | -0.0187
GATCATTA | 0.104
GTCGTAAA | -0.0446
CCAACACC | -0.167
AAAGTGTG | -0.0177
AAAACTCC | -0.108
ATTGGGAG | -0.0909
ACCAAAGA | 0.189
TAGCAATA | 0.152
CACTACTC | 0.0536
AGAACAAT | 0.174
CGTATAGC | -0.00851
ACGTGTAC | -0.135
AGTATAAT | 0.22
